Reference: PMC11519374

Amino acid sequences for entries named in this document (tags omitted). A change or cut given only in a name is not applied to a line headed by its entry.
UniProt Q9BST9: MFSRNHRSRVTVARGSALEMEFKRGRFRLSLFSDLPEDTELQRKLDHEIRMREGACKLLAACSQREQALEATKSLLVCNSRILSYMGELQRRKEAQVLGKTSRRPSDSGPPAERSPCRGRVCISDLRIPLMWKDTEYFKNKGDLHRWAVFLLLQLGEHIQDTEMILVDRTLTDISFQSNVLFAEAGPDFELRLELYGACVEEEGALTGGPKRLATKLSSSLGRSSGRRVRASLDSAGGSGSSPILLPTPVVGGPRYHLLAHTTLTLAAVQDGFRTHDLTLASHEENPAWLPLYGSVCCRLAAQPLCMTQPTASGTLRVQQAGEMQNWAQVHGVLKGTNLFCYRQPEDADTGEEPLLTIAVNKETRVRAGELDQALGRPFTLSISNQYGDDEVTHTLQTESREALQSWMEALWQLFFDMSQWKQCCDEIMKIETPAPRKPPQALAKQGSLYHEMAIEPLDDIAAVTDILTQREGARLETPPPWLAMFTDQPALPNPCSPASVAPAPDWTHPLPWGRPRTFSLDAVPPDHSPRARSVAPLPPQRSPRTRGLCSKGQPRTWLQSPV
UniProt P61586: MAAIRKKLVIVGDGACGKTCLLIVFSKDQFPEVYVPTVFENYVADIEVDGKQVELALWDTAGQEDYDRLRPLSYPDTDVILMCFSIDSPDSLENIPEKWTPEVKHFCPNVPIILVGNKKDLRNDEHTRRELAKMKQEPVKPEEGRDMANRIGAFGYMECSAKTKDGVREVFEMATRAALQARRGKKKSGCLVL

Key:
[1] = target: GST-rhotekin-Rho binding domain (UniProt Q9BST9); assay: pull-down; GST-RBD bound to glutathione Sepharose beads, mixed with lysates of starved cells for 2 h at 4°C; RhoA detected by Western blot; cells treated with Dox (TBC1D3C or TBC1D3C-RD2A), Noc, C3, Rhosin or with GEF-H1 knockout; only the target purified
[2] = target: T1, GEF-H1 (human (endogenous in U2OS and HEK293A)) (UniProt Q92974); assay: co-IP; immunoprecipitation with GEF-H1 antibody from lysates of cells with or without induction of TBC1D3C or TBC1D3C-RD2A; immunoblot for Tctex, DIC and 14-3-3
T1 sequence: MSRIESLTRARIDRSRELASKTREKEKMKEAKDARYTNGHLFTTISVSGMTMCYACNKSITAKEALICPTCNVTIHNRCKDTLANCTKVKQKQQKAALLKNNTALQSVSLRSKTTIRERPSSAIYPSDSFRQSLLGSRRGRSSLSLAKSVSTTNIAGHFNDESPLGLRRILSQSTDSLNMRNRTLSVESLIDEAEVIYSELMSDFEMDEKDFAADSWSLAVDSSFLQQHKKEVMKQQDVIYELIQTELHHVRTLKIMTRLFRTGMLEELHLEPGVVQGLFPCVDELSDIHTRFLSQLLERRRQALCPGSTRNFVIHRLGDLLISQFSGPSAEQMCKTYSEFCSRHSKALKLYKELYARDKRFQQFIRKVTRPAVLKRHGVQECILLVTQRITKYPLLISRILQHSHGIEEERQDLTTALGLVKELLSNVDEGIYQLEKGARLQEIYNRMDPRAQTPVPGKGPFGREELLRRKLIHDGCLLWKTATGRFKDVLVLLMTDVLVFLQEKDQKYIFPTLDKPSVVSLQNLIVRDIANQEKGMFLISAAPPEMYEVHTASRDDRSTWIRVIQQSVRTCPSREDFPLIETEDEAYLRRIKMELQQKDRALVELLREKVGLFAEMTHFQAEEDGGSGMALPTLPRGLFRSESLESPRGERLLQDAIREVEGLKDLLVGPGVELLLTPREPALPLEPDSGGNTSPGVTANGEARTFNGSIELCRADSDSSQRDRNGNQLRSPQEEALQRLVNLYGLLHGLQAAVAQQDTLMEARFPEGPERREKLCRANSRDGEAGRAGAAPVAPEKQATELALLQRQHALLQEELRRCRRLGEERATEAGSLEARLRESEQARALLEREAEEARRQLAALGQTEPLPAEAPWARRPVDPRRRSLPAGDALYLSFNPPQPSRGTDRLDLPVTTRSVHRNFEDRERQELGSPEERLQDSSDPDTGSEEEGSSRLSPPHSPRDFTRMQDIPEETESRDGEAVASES

Substance | binding [1] | binding [2]
RhoA (from UniProt P61586 1-193) | binds | –
dynein intermediate chain | – | binds

These are yes or no findings as the source states them, for the method shown. In cells and extracts the contact can be indirect. A result given as binding can be weak or reduced; the word gives no strength.
